Measurements taken from US9598459B2, “Pharmaceutical compositions and methods” (priority 2015, dated 2017).

Tested on: cellular ribosomal RNA (rRNA) synthesis
Experiment: Cellular ribosomal RNA synthesis in HCV replicon cells (TaqMan RT-qPCR)
Assay type: cell-based
Settings: 10 μM

| SMILES | TaqMan RT-qPCR threshold cycle value difference (ΔCT) of cellular ribosomal RNA (rRNA) synthesis |
| --- | --- |
| C[C@@]1(O)[C@H](O)[C@@H](CO)O[C@H]1n1ccc(N)nc1=O [2′-C-methylcytidine (RS-446), 2′-C-methylcytidine, reference compound] | 0.54 |
| CC#CC1(O)CCC2C3CCC4=CC(=NNC(N)=S)CCC4=C3C(c3ccc4c(c3)OCO4)CC21C.CC#CC1(O)CCC2C3CCC4=CC(=O)CCC4=C3C(c3ccc4c(c3)OCO4)CC21C.CC(C)=O.CCO.O (stereo not drawn) [PT155, ⅓ (11β,17β)-17-Hydroxy-11-[3,4-(methylenedioxy)phenyl]-17-(1-propyn-1-yl)estra-4,9-dien-3-one (ORG34517)×(2EZ)-2-{(11β,17β)-17-hydroxy-11-[3,4-(methylenedioxy)phenyl]-17-(1-propyn-1-yl)estra-4,9-dien-3-ylidene}hydrazinecarbothioamide [71.8% (E), 28.2% (Z)] hemihydrate×¾% acetone× ⅛ ethanol] | −0.19 |
| CC#C[C@]1(O)CC[C@H]2[C@@H]3CCC4=CC(=O)CCC4=C3[C@@H](c3ccc4c(c3)OCO4)C[C@@]21C [PT150, (11β,17β)-11-(1,3-benzodioxol-5-yl)-17-hydroxy-17-(1-propynyl)-estra-4,9-dien-3-one] | −0.48 |
